# Not every detail of the peptide structures is certain; ends, links or a residue may be inferred. No end group written: not given here.
# Test system: CTL precursors in peripheral blood lymphocytes
# Experiment: Limiting dilution analysis (LDA) of differentiation of CTL precursors to mature CTL
# Type: cell-based, human
# Conditions: targets HLA-A2.1, HLA-B27, HLA-B27+INF-NP, FIGS. 1A-1C
sequence,measurement,value
"EDQTQDTELVETRP [HLAI.222-235, EDQTQDTELVETRP]",CTL generation for allogeneic and influenza-specific responses,effectively blocked

# Reference: US5620956A, “Methods of using CD8 binding domain peptides” (The Board of Regents of the Leland Stanford Junior …, priority 1994, dated 1997)
